Test results: the supplement of paper PMC7661543
± gives the standard deviation of the averaged measurements. The effect of the compound repeats well; differences between the knockouts mostly do not.

Test system: MDA-MB-231
Assay: relative cell number vs DMSO control (72 h) (% of DMSO); higher = less growth inhibition (more cells)
Procedure: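 QMAP-Seq: a pool of 5 breast cancer cell lines (ZR-75-1, SKBR3, HCC-38, MDA-MB-231, BT-20), each carrying 12 doxycycline-inducible Cas9 sgRNA perturbations (11 knockouts plus non-targeting sgNT), was treated with compounds for 72 h at four 10-fold doses (10 nM-10 uM or 1 nM-1 uM range). Barcodes were amplified and sequenced, and cell number was interpolated from 293T spike-in standard curves. The result is expressed as % of the median of DMSO wells. Two biological replicates.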

Cc1cn(-c2cc(NC(=O)c3ccc(C)c(Nc4nccc(-c5cccnc5)n4)c3)cc(C(F)(F)F)c2)cn1 [Nilotinib]
Conditions	relative cell number
sgRNA knockout: sgATF3, 10 nM	92.6 ± 12
sgRNA knockout: sgATF3, 100 nM	88.1 ± 12
sgRNA knockout: sgATF3, 1000 nM	96.1 ± 5.9
sgRNA knockout: sgATF3, 10000 nM	61.5 ± 9.7
sgRNA knockout: sgATF4, 10 nM	95.7 ± 45
sgRNA knockout: sgATF4, 100 nM	101 ± 21
sgRNA knockout: sgATF4, 1000 nM	91.4 ± 20
sgRNA knockout: sgATF4, 10000 nM	59.8 ± 24
sgRNA knockout: sgATF6, 10 nM	67 ± 17
sgRNA knockout: sgATF6, 100 nM	93.1 ± 29
sgRNA knockout: sgATF6, 1000 nM	110 ± 3.2
sgRNA knockout: sgATF6, 10000 nM	60.4 ± 8.4
sgRNA knockout: sgATG7, 10 nM	84.3 ± 20
sgRNA knockout: sgATG7, 100 nM	90.1 ± 2.5
sgRNA knockout: sgATG7, 1000 nM	101 ± 16
sgRNA knockout: sgATG7, 10000 nM	53.5 ± 13
sgRNA knockout: sgERN1, 10 nM	74.1 ± 5.3
sgRNA knockout: sgERN1, 100 nM	89.9 ± 24
sgRNA knockout: sgERN1, 1000 nM	82.3 ± 0.11
sgRNA knockout: sgERN1, 10000 nM	62.8 ± 8.8
sgRNA knockout: sgHSF1, 10 nM	85 ± 18
sgRNA knockout: sgHSF1, 100 nM	87 ± 16
sgRNA knockout: sgHSF1, 1000 nM	61.8 ± 14
sgRNA knockout: sgHSF1, 10000 nM	76.7 ± 14
sgRNA knockout: sgHSF2, 10 nM	84.9 ± 2.4
sgRNA knockout: sgHSF2, 100 nM	106 ± 11
sgRNA knockout: sgHSF2, 1000 nM	86.3 ± 7.3
sgRNA knockout: sgHSF2, 10000 nM	60.7 ± 14
sgRNA knockout: sgKEAP1, 10 nM	89.9 ± 15
sgRNA knockout: sgKEAP1, 100 nM	94.1 ± 7.1
sgRNA knockout: sgKEAP1, 1000 nM	69.9 ± 26
sgRNA knockout: sgKEAP1, 10000 nM	58.9 ± 1.3
sgRNA knockout: sgNFE2L2, 10 nM	68.9 ± 20
sgRNA knockout: sgNFE2L2, 100 nM	98.1 ± 6
sgRNA knockout: sgNFE2L2, 1000 nM	85.5 ± 15
sgRNA knockout: sgNFE2L2, 10000 nM	53.2 ± 14
sgRNA knockout: sgSLC35F2, 10 nM	100 ± 7
sgRNA knockout: sgSLC35F2, 100 nM	108 ± 4
sgRNA knockout: sgSLC35F2, 1000 nM	83.6 ± 8.3
sgRNA knockout: sgSLC35F2, 10000 nM	69.2 ± 9.6
sgRNA knockout: sgXBP1, 10 nM	95.2 ± 1.3
sgRNA knockout: sgXBP1, 100 nM	113.7 ± 0.69
sgRNA knockout: sgXBP1, 1000 nM	89.7 ± 30
sgRNA knockout: sgXBP1, 10000 nM	53.6 ± 1.3

O=C(c1cc(Cc2n[nH]c(=O)c3ccccc23)ccc1F)N1CCN(C(=O)C2CC2)CC1 [Olaparib]
Conditions	relative cell number
sgRNA knockout: sgATF3, 10 nM	85.5 ± 6.4
sgRNA knockout: sgATF3, 100 nM	86.6 ± 24
sgRNA knockout: sgATF3, 1000 nM	104 ± 0.52
sgRNA knockout: sgATF3, 10000 nM	56.2 ± 3.1
sgRNA knockout: sgATF4, 10 nM	91.6 ± 6.5
sgRNA knockout: sgATF4, 100 nM	100 ± 6.9
sgRNA knockout: sgATF4, 1000 nM	76.6 ± 8.1
sgRNA knockout: sgATF4, 10000 nM	64.2 ± 18
sgRNA knockout: sgATF6, 10 nM	88.6 ± 18
sgRNA knockout: sgATF6, 100 nM	93.5 ± 18
sgRNA knockout: sgATF6, 1000 nM	81.2 ± 26
sgRNA knockout: sgATF6, 10000 nM	80.2 ± 21
sgRNA knockout: sgATG7, 10 nM	100 ± 9.8
sgRNA knockout: sgATG7, 100 nM	84.6 ± 12
sgRNA knockout: sgATG7, 1000 nM	77.5 ± 7
sgRNA knockout: sgATG7, 10000 nM	71.6 ± 5.1
sgRNA knockout: sgERN1, 10 nM	103 ± 2.2
sgRNA knockout: sgERN1, 100 nM	97.7 ± 4.7
sgRNA knockout: sgERN1, 1000 nM	81.4 ± 33
sgRNA knockout: sgERN1, 10000 nM	64.9 ± 14
sgRNA knockout: sgHSF1, 10 nM	109 ± 40
sgRNA knockout: sgHSF1, 100 nM	86.8 ± 8.3
sgRNA knockout: sgHSF1, 1000 nM	55.8 ± 28
sgRNA knockout: sgHSF1, 10000 nM	69.5 ± 19
sgRNA knockout: sgHSF2, 10 nM	112 ± 2.7
sgRNA knockout: sgHSF2, 100 nM	82.1 ± 4.2
sgRNA knockout: sgHSF2, 1000 nM	96.2 ± 26
sgRNA knockout: sgHSF2, 10000 nM	78.2 ± 4.5
sgRNA knockout: sgKEAP1, 10 nM	101 ± 1.1
sgRNA knockout: sgKEAP1, 100 nM	81.1 ± 25
sgRNA knockout: sgKEAP1, 1000 nM	90.1 ± 18
sgRNA knockout: sgKEAP1, 10000 nM	74.8 ± 2.9
sgRNA knockout: sgNFE2L2, 10 nM	76.1 ± 9.8
sgRNA knockout: sgNFE2L2, 100 nM	91.5 ± 29
sgRNA knockout: sgNFE2L2, 1000 nM	77.1 ± 8.5
sgRNA knockout: sgNFE2L2, 10000 nM	73 ± 24
sgRNA knockout: sgSLC35F2, 10 nM	115 ± 9.3
sgRNA knockout: sgSLC35F2, 100 nM	81.8 ± 26
sgRNA knockout: sgSLC35F2, 1000 nM	104 ± 6.6
sgRNA knockout: sgSLC35F2, 10000 nM	73.2 ± 22
sgRNA knockout: sgXBP1, 10 nM	78.8 ± 30
sgRNA knockout: sgXBP1, 100 nM	112 ± 5
sgRNA knockout: sgXBP1, 1000 nM	81.7 ± 14
sgRNA knockout: sgXBP1, 10000 nM	58.7 ± 12

CCCS(=O)(=O)Nc1ccc(F)c(C(=O)c2c[nH]c3ncc(Cl)cc23)c1F [PLX4720]
Conditions	relative cell number
sgRNA knockout: sgATF3, 10 nM	92.2 ± 27
sgRNA knockout: sgATF3, 100 nM	72.2 ± 34
sgRNA knockout: sgATF3, 1000 nM	96.8 ± 17
sgRNA knockout: sgATF3, 10000 nM	101 ± 7.2
sgRNA knockout: sgATF4, 10 nM	133 ± 13
sgRNA knockout: sgATF4, 100 nM	90 ± 18
sgRNA knockout: sgATF4, 1000 nM	83.7 ± 9.1
sgRNA knockout: sgATF4, 10000 nM	113 ± 11
sgRNA knockout: sgATF6, 10 nM	92.9 ± 34
sgRNA knockout: sgATF6, 100 nM	88.5 ± 10
sgRNA knockout: sgATF6, 1000 nM	131 ± 30
sgRNA knockout: sgATF6, 10000 nM	86.1 ± 6
sgRNA knockout: sgATG7, 10 nM	106 ± 9.6
sgRNA knockout: sgATG7, 100 nM	78.8 ± 16
sgRNA knockout: sgATG7, 1000 nM	123 ± 31
sgRNA knockout: sgATG7, 10000 nM	102 ± 17
sgRNA knockout: sgERN1, 10 nM	85 ± 19
sgRNA knockout: sgERN1, 100 nM	105 ± 45
sgRNA knockout: sgERN1, 1000 nM	90.4 ± 6.8
sgRNA knockout: sgERN1, 10000 nM	92.3 ± 26
sgRNA knockout: sgHSF1, 10 nM	98.7 ± 2.3
sgRNA knockout: sgHSF1, 100 nM	82.5 ± 17
sgRNA knockout: sgHSF1, 1000 nM	108 ± 48
sgRNA knockout: sgHSF1, 10000 nM	86.9 ± 10
sgRNA knockout: sgHSF2, 10 nM	105.92 ± 0.058
sgRNA knockout: sgHSF2, 100 nM	89.8 ± 23
sgRNA knockout: sgHSF2, 1000 nM	72 ± 25
sgRNA knockout: sgHSF2, 10000 nM	93.5 ± 4.4
sgRNA knockout: sgKEAP1, 10 nM	101 ± 15
sgRNA knockout: sgKEAP1, 100 nM	120 ± 5.9
sgRNA knockout: sgKEAP1, 1000 nM	76.8 ± 11
sgRNA knockout: sgKEAP1, 10000 nM	116 ± 28
sgRNA knockout: sgNFE2L2, 10 nM	97.4 ± 6.3
sgRNA knockout: sgNFE2L2, 100 nM	111 ± 21
sgRNA knockout: sgNFE2L2, 1000 nM	95.1 ± 38
sgRNA knockout: sgNFE2L2, 10000 nM	97.3 ± 12
sgRNA knockout: sgSLC35F2, 10 nM	97.2 ± 24
sgRNA knockout: sgSLC35F2, 100 nM	96.9 ± 25
sgRNA knockout: sgSLC35F2, 1000 nM	121 ± 14
sgRNA knockout: sgSLC35F2, 10000 nM	108 ± 6.6
sgRNA knockout: sgXBP1, 10 nM	85 ± 4.2
sgRNA knockout: sgXBP1, 100 nM	95.6 ± 26
sgRNA knockout: sgXBP1, 1000 nM	87.7 ± 15
sgRNA knockout: sgXBP1, 10000 nM	94 ± 32
